PubChem BioAssay AID1053208, Peter MacCallum Cancer Centre – 2014
Assay: 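Genes whose silencing cuts survival of bone tumour cells only with doxorubicin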 (primary screen). System: mouse osteosarcoma cells, early-passage culture from an engineered mouse model of fibroblastic bone tumour. Knock-down reagent: siRNA pool against mouse genes, 40 nM. Timing: about 120 h (48 h before drug, then 72 h with drug). Conditions: doxorubicin 100 nM for 72 h, roughly 30-40% inhibitory dose. Detection: 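Viability read as ATP luminescence after 72 h of 100 nM doxorubicin or none, duplicate wells averaged, scaled to non-targeting siRNA, then expressed as robust z-scores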. Direction: viability z-score with doxorubicin: higher = more viable cells under doxorubicin; viability z-score without drug: higher = more viable cells with knock-down alone. Call rule: 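Called active if knock-down leaves viability unchanged without drug (z within -2 to 2) but lowers it with doxorubicin (z at or under -2)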.
Shown is a random part of about 17,000 reagents. 788 of all reagents (4.7%) were called active. 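Calls rest on z-score classes alone; an extra cut-off of viability at most 70% of control was not applied to them.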 Not all columns of the deposit are shown.

Depletion of Ccl17 (C-C motif chemokine ligand 17) came out at: combined z-score class no change with or without drug; viability z-score with doxorubicin -0.11; viability z-score without drug -0.67; inactive. Depletion of F13b (coagulation factor XIII, beta subunit) resulted in: combined z-score class no change with or without drug; viability z-score with doxorubicin -0.56; viability z-score without drug -0.67; inactive. Against Usp2 (ubiquitin specific peptidase 2), the values are combined z-score class no change with or without drug; viability z-score with doxorubicin 0; viability z-score without drug 1.69; inactive. For ELL2, the values are combined z-score class high cell count without drug only; viability z-score with doxorubicin 1.24; viability z-score without drug 2.53; inactive. For Nkx2-1 (NK2 homeobox 1), the entry reads combined z-score class no change with or without drug; viability z-score with doxorubicin -0.56; viability z-score without drug -0.51; inactive. Gigyf1 (GRB10 interacting GYF protein 1) scored combined z-score class no change with or without drug; viability z-score with doxorubicin -1.57; viability z-score without drug -1.52; inactive.

Reformatted: entries from further up
| gene knocked down | combined z-score class | viability z-score with doxorubicin | viability z-score without drug | call |
| --- | --- | --- | --- | --- |
| Nkx2-1 (NK2 homeobox 1) | no change with or without drug | -0.56 | -0.51 | inactive |
| Gigyf1 (GRB10 interacting GYF protein 1) | no change with or without drug | -1.57 | -1.52 | inactive |

The listing continues.
With knock-down of Ralb (Ras like proto-oncogene B), the screen gave combined z-score class no change with or without drug; viability z-score with doxorubicin 1.24; viability z-score without drug 0.51; inactive. With knock-down of Vars2 (valyl-tRNA synthetase 2, mitochondrial), the record shows combined z-score class no change with or without drug; viability z-score with doxorubicin -0.9; viability z-score without drug -0.51; inactive. Against Plppr2 (phospholipid phosphatase related 2) the deposit lists combined z-score class no change with or without drug; viability z-score with doxorubicin 0.45; viability z-score without drug 1.18; inactive. With knock-down of Ppbp (pro-platelet basic protein), the screen gave combined z-score class no change with or without drug; viability z-score with doxorubicin -1.24; viability z-score without drug -1.18; inactive. Knock-down of Vmn1r231 (vomeronasal 1 receptor 231) gave: combined z-score class no change with or without drug; viability z-score with doxorubicin -1.24; viability z-score without drug -0.51; inactive. For Krtap19-2 (keratin associated protein 19-2) the deposit lists combined z-score class no change with or without drug; viability z-score with doxorubicin 1.35; viability z-score without drug 0; inactive.
